Test results reported in publication PMC6433973.
Results are given in words; binding and its absence hold for the method and conditions named. For part of these data: Binding calls can cover weak binding; strength is not graded here.

The chains behind the UniProt entries cited, without tags or fusion partners. Where a name states a change or a piece, a line headed by the entry shows the natural chain unless it says otherwise.
UniProt Q12929: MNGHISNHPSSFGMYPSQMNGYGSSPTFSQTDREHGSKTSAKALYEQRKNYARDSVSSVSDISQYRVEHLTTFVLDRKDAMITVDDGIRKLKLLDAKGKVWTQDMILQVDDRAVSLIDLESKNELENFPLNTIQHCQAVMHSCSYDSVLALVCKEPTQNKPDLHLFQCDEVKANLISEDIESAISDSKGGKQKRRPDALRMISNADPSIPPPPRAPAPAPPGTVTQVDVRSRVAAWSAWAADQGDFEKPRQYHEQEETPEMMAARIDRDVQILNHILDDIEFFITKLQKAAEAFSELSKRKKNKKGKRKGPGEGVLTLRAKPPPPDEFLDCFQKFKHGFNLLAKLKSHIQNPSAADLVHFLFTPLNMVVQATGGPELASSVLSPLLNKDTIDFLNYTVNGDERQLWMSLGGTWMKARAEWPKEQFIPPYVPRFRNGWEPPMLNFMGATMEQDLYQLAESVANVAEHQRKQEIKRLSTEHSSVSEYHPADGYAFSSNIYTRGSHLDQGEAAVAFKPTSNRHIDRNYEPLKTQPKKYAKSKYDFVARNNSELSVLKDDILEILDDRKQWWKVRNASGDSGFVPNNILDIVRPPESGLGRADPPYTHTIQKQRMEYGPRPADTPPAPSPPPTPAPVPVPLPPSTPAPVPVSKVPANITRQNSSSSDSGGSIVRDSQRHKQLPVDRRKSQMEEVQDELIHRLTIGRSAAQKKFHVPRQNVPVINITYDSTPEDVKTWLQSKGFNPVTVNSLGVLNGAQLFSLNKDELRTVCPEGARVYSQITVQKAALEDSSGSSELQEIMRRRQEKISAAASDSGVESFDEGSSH

T1: rat FOXM1 amino acids 337 to 437 (two-hybrid bait) (rat) (UniProt P97691)
T1 sequence: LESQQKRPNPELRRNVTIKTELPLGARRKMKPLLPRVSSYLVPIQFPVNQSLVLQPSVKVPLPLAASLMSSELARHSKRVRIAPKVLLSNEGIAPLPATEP


Experiments:
[1] = target: T1, rat FOXM1 amino acids 337 to 437 (two-hybrid bait) (rat); experiment: two-hybrid; LexA-based yeast two-hybrid screen of an insulinoma cDNA library with rat FOXM1 337-437 as bait
[2] = target: EPS8-ΔSH3 (Gal4 two-hybrid bait) (human) (UniProt Q12929); experiment: two-hybrid; Gal4-based Matchmaker system (Clontech); EPS8 constructs as bait in pGBT9, full-length FOXM1 as prey in pGAD424; growth on SC medium lacking leucine, tryptophan and histidine
[3] = target: EPS8-ΔNt-ΔSH3 (Gal4 two-hybrid bait) (human) (UniProt Q12929); experiment: as above

Row | binding [1] | binding [2] | binding [3] | Molecule
1 | binds |  |  | EPS8 isolated from an insulinoma cDNA library (two-hybrid prey)
2 |  | binds | no binding | full-length human FOXM1c (Gal4 two-hybrid prey) (protein, UniProt Q08050-1 1-763) MKTSPRRPLILKRRRLPLPVQNAPSETSEEEPKRSPAQQESNQAEASKEVAESNSCKFPAGIKIINHPTMPNTQVVAIPNNANIHSIITALTAKGKESGSSGPNKFILISCGGAPTQPPGLRPQTQTSYDAKRTEVTLETLGPKPAARDVNLPRPPGALCEQKRETCADGEAAGCTINNSLSNIQWLRKMSSDGLGSRSIKQEMEEKENCHLEQRQVKVEEPSRPSASWQNSVSERPPYSYMAMIQFAINSTERKRMTLKDIYTWIEDHFPYFKHIAKPGWKNSIRHNLSLHDMFVRETSANGKVSFWTIHPSANRYLTLDQVFKPLDPGSPQLPEHLESQQKRPNPELRRNMTIKTELPLGARRKMKPLLPRVSSYLVPIQFPVNQSLVLQPSVKVPLPLAASLMSSELARHSKRVRIAPKVLLAEEGIAPLSSAGPGKEEKLLFGEGFSPLLPVQTIKEEEIQPGEEMPHLARPIKVESPPLEEWPSPAPSFKEESSHSWEDSSQSPTPRPKKSYSGLRSPTRCVSEMLVIQHRERRERSRSRRKQHLLPPCVDEPELLFSEGPSTSRWAAELPFPADSSDPASQLSYSQEVGGPFKTPIKETLPISSTPSKSVLPRTPESWRLTPPAKVGGLDFSPVQTSQGASDPLPDPLGLMDLSTTPLQSAPPLESPQRLLSSEPLDLISVPFGNSSPSDIDVPKPGSPEPQVSGLAANRSLTEGLVLDTMNDSLSKILLDISFPGLDEDPLGPDNINWSQFIPELQ
